The whole screen tested about 400,000 compounds, of which about 5,500 (1.4%) were called active. The inconclusive results got no clear call from the source; some entries with a clear call stand among them for comparison. Calls come from the whole dose curve; as a rule, active = well fitted cell-killing curve with a large enough effect; inconclusive = small, poorly fitted or top-dose-only effect, or effect the other way; inactive = flat fitted curve, though single readings scatter. Where the call is inconclusive, the potency comes from a doubtful curve fit.
assay: qHTS assay for MDR1-selective chemotherapeutics: Primary screen using the parental adenocarcinoma cell KB-3-1; settings: KB-3-1 viability, CellTiter-Glo ATP luminescence, 72 h; series mostly up to 46.1 µM; note: nearly all actives have a fitted effect of over 60% in size
Summary of the method: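 72 h, 37 °C compound treatment of KB-3-1 parental cells; CellTiter-Glo added, 10 min, luminescence read. Data corrected against DMSO-only plates and normalized before curve fitting.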
Potency is the fitted concentration of half-maximal effect.

Q: With CCNC(=O)c1c(NC(=O)C2COc3ccccc3O2)sc2c1CCCC2 (configuration not stated) as the compound, how does the Potency read?
A: inconclusive: 3.66 µM [cytotoxic, partial curve, poor fit]

Q: For COc1ccc(CN(C)Cc2nc(Cc3cccc(F)c3)no2)c2cccnc12, which Potency is on record?
A: inconclusive: 13 µM [cytotoxic, partial curve, poor fit]

Q: With O=S(=O)(N[C@H]1C[C@@H](NS(=O)(=O)OCC(Cl)(Cl)Cl)C2CCCCC21)OCC(Cl)(Cl)Cl (some centres not stated) as the compound, how does the Potency read?
A: inconclusive: 23.1 µM [cytotoxic, single point]

Q: Which Potency does the source give for CCOC(=O)[C@]12CCCC=C1N(Cc1ccc(Cl)cc1Cl)C(=O)[C@H](CC(=O)NCc1ccc(C)o1)C2 here?
A: inconclusive: 29.1 µM [cytotoxic, single point]

Q: For COc1cc(NC(=O)CCC(=O)OCCCC(F)(F)C(F)(F)F)nc(OC)n1, which Potency is on record?
A: inconclusive: 29.1 µM [rising, partial curve, poor fit]

Q: With CCOC(=O)COc1cccc2c(=O)n(CC(=O)NCc3ccc4c(c3)OCO4)ccc12 as the compound, how does the Potency read?
A: inconclusive: 1.46 µM [cytotoxic, full curve, poor fit]

Q: Which Potency does the source give for CCc1nn(CC(=O)NCCc2ccc(OC)cc2OC)c(=O)c2cc3c(OC)cccc3n12 here?
A: inactive

Q: Which Potency does the source give for CCN(CC)S(=O)(=O)c1ccc(C)c(NC(=O)COC(=O)CN2C(=O)NC(C)(C)C2=O)c1 here?
A: inactive

Q: With CCOc1cc(CNC(=O)C2COc3ccccc3C2)cc(OCC)c1OCC (configuration not stated) as the compound, how does the Potency read?
A: inactive

Q: Which Potency does the source give for COc1ccc(C(c2nnnn2Cc2ccccc2)N2CCN(C/C=C/c3ccccc3)CC2)cc1 (configuration not stated) here?
A: inconclusive: 29.1 µM [cytotoxic, single point]

Q: For NC(=O)CSc1ccc(-c2ccc(F)cc2)nn1, which Potency is on record?
A: inactive

Q: For Cc1cc(NC(=O)CSCC(=O)N2CCN(c3cccc(C(F)(F)F)c3)CC2)no1, which Potency is on record?
A: inactive

Q: For CCc1nnc2sc(-c3ccc(NC(=O)CSc4ccc(Cl)cc4)cc3)nn12, which Potency is on record?
A: inconclusive: 20.6 µM [cytotoxic, single point]

Q: With O=C(COC(=O)/C=C/c1cccc(C(F)(F)F)c1)NC(=O)NCc1ccccc1 as the compound, how does the Potency read?
A: inconclusive: 29.1 µM [rising, single point]

Q: Which Potency does the source give for CCCOc1ccc(C(O)(CCC)CCN2CCCCC2)cc1 (configuration not stated) here?
A: inconclusive: 20.6 µM [cytotoxic, partial curve]

Q: For C=CCn1cc(C(=O)NCCN(CC)CC)c(=O)c2cc(S(=O)(=O)N3CCCCCC3)ccc21, which Potency is on record?
A: inconclusive: 20.6 µM [cytotoxic, single point]

Q: Which Potency does the source give for CCOc1ccccc1N1CC(c2nc3ccccc3n2CCOc2ccccc2)CC1=O (configuration not stated) here?
A: inconclusive: 29.1 µM [cytotoxic, single point]

Reference: PubChem BioAssay AID1347075 (National Center for Advancing Translational Sciences (NCATS), 2019)
